# Primary screen of a compound library

Measurements from “University of Dundee, Small-Polar-MMV Screening Library” (2021), ChEMBL document CHEMBL3988442.

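Whole-cell assay for inhibitors of Mycobacterium tuberculosis growth, labelled Cornell in the record; the read-out is not stated. The concentration is filed as 10 mM, unlikely as a test dose, so the dose is not known. Higher means stronger inhibition (inferred from two other growth screens of the library). Of about 53,000 compounds tested this way, about 900 (1.7%) reached 50% or more in at least one test.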

The filed quantity is “Percent Effect” (%).
How 0% and 100% were set is not recorded. Most values in the screen are low, and negative values occur.
Compounds were drawn at random from those tested, without regard to their results.

| Compound | percent effect |
|---|---|
| `O=c1cc(Cn2cncn2)nc2n1CCCN(Cc1ccco1)C2` | -61.19% |
| `CN(c1ncc(S(N)(=O)=O)s1)C1CCc2ccccc2C1` (stereo not drawn) | 9.673% |
| `Cc1ncccc1C(=O)NCC(C)Oc1ccc(F)cc1` (stereo not drawn) | -28.5% |
| `O=C(O)C(F)(F)F.O=C(O)C(F)(F)F.[H][C@]12C[C@@H](Cn3cccn3)N(c3nccs3)[C@@]1([H])CCN(C(=O)CC)C2` | -24.99% |
| `CCSc1nc(N)c(NC(=O)c2ccc(C)cc2)c(=O)[nH]1` | -41.61% |
| `CCCc1cc(NCCn2cccn2)n2ncnc2n1` | 16.75% |
| `CCc1ccc(O)c(C(=O)N2CCN(CC(=O)N(C)C)CC2)c1` | 27.33% |
| `Cc1ccc(CN2CC[C@@H](O)[C@@H]2Cc2cnn(C)c2)o1.O=C(O)C(F)(F)F` | -13.59% |
| `COc1ccc(-c2c(C)nn3c(=N)c(C#N)n[nH]c23)cc1OC` | 16.11% |
| `O=C(NCCn1ccnc1)c1cccc(Br)c1` | 9.854% |
| `CCc1nc2n(n1)CC(NCc1noc(-c3ccccc3)n1)CC2` (stereo not drawn) | -2.072% |
| `COc1cccc(C(=O)N2CCN(C(=O)CCCc3cn[nH]c3)CC2)c1` | 9.704% |
| `NC(=O)C1(CCCc2ccccn2)CCCN(Cc2ccncc2)C1` (stereo not drawn) | -9.123% |
| `CS(=O)(=O)N1Cc2cnn(CC3CC3)c2C(COCC2CC2)C1.O=C(O)C(F)(F)F` (stereo not drawn) | 2.962% |
| `Cc1cc(CS(=O)(=O)N(C)C(C)c2ccc(Cl)cc2)on1` (stereo not drawn) | 22.26% |
| `O=C(CC1NC(N2CCc3ccccc32)=NC1=O)Nc1ccc(Cl)cc1` (stereo not drawn) | 9.146% |
| `Cc1nnc(NCCc2nc3ccc(F)cc3n2C)c(C#N)c1C` | 15.54% |
| `Cc1cnn(C2CCCN(C(=O)c3ccc(N(C)C)nn3)C2)c1` (stereo not drawn) | -53.96% |
| `O=S1(=O)c2cccnc2OC(COc2ccccc2)CN1CC1CC1` (stereo not drawn) | 33.91% |
| `[H][C@]12CC[C@]([H])(CN(CC(=O)N(C)C)C1)N(Cc1cccc(Cl)c1Cl)C2` | 11.43% |
| `Cn1nc(C2CC2)cc1C(=O)N1CCC(c2nnsc2S(C)(=O)=O)CC1` | 12.63% |
| `Cn1nccc1CNC(=O)Cn1nc(C(F)(F)F)cc1C1CC1` | -7.14% |
| `Cn1cc(NC(=O)CNC(=O)N2CCN(c3ccccc3)CC2)cn1` | 34.63% |
| `Cc1ccc(CN2CCN(C3CCCC3)CC2CCO)o1` (stereo not drawn) | -9.652% |
| `Cc1cc(C)n(CC(=O)N2CCCC(c3cc4cccnc4[nH]3)C2)n1` (stereo not drawn) | 23.52% |
| `CC(CCc1ccccc1)N1CCC(C(=O)Nc2cnccn2)CC1` (stereo not drawn) | 6.155% |
| `CCc1cccc2cc(CNCCCN3CCOCC3)c(=O)[nH]c12` | 4.405% |
| `Cc1cc(CC(=O)N2CCCC2c2nc(C(C)C)no2)on1` (stereo not drawn) | -6.468% |
| `O=C(CN1CCN(CCO)CC1)NCc1ccc(Cl)s1` | 19.23% |
| `NC(=O)c1ccc(C(=O)N2CCCCC2C2OCCO2)cc1` (stereo not drawn) | -32.31% |
| `COCCN1CCN(Cc2ccoc2)Cc2cccnc21` | 18.25% |
| `O=C(c1cccnc1O)N(CCO)Cc1cc(Br)ccc1F` | 15.83% |
| `CCNC(=O)C1CCN(c2cc(-c3ccccc3)nc3ccnn23)C1` (stereo not drawn) | 13.63% |
| `Cn1cnc(S(=O)(=O)N2CCOCC2)c1Cl` | -0.5361% |
| `CCS(=O)(=O)N1CCC(c2nc(C)c(C)c(N3CCCC3)n2)CC1` | 3.476% |
| `CCOCC1c2c(ncn2C)CCN1C(=O)c1cscn1` (stereo not drawn) | -20.64% |
| `CN(C)C(=O)Cc1ccccc1NCc1cccc(F)c1F` | 3.006% |
| `Cc1nc(CSCCC(=O)NCc2ccc(-n3cncn3)nc2)cs1` | -22.21% |
| `CCCn1nc2c(cc1=O)CN(CCS(C)(=O)=O)CC2` | 0.8313% |
| `[H][C@@]12C[C@H](C(=O)N3CCCCO3)CN(C(=O)c3ccnnc3)[C@]1([H])CCO2` | -5.8% |
| `COc1cc(C(=O)N2CCCC2CC(=O)c2cnn(C)c2)ccc1F` (stereo not drawn) | 26.08% |
| `CCCC(NC(=O)c1cncc(C)c1)c1nnn[nH]1` (stereo not drawn) | -39.01% |
| `O=C(c1cn[nH]c1)N1CCC2(CCCN(Cc3ccc(F)c(F)c3)C2)C1` (stereo not drawn) | 5.03% |
| `Nc1cncc(C(=O)N2Cc3ccccc3OC3(CCOCC3)C2)c1` | -16.37% |
| `Cc1nnsc1-c1nnc2sc(C3CCC3)nn12` | 38.78% |
| `[H][C@@]12CN(C(=O)N(C)C)C[C@]1([H])C(=O)N(Cc1cccc(F)c1)C2` | -18.06% |
| `O=C(NCC1Cn2nnc(-c3ccoc3)c2CO1)c1ccc[nH]1` (stereo not drawn) | -2.275% |
| `Cc1csc(CNC(=O)NC2CCCN(S(C)(=O)=O)C2)n1` (stereo not drawn) | -6.086% |
| `CCS(=O)(=O)CC(=O)NC1(c2ccc(Cl)c(Cl)c2)CC1` | 10.84% |
| `CCCS(=O)(=O)NC(C)c1cccc(-n2cccn2)c1` (stereo not drawn) | 16.29% |
| `O=C(NC[C@]1(O)CCN(Cc2ccsc2)C[C@H]1O)c1c[nH]cn1` | -8.917% |
| `CS(=O)(=O)N1CCc2ccc(=O)n(CC3CCOCC3)c2CC1` | 8.821% |
| `CC(C)c1nnc2n1CCN(Cc1ccc3c(c1)OCO3)CC2` | 0.133% |
| `CCS(=O)(=O)N1CCN(C(C)(C)CO)CC1` | 10.74% |
| `Cl.c1cnc2c(c1)cc([C@H]1CCCO1)n2CCN1CCCCC1` | -1.817% |
| `OC(COCc1ccco1)CN1CCc2c(ncn2C2CC2)C1` (stereo not drawn) | 6.199% |
| `COc1cccc(COC(C)C(=O)NCc2nnc3n2CCC3)c1` (stereo not drawn) | 7.818% |
| `O=S(=O)(Cc1cccc(Cl)c1)CC(O)Cn1cccn1` (stereo not drawn) | -32.38% |
| `CCc1noc(C(C)N2CCN(Cc3cnc(C)cn3)CC2)n1` (stereo not drawn) | -27.13% |
| `OCCNc1nc(NCc2cccnc2)nc2nccnc12` | 10.81% |
| `CC(C)(C)c1nc(CNc2ccccc2SCCC(N)=O)cs1` | 4.992% |
| `CCc1nc(CN2CCCN(c3nn4cc(C)nc4s3)CC2)no1` | -24.64% |
| `Cc1nc(N2CCOCC2)nc2c1CN(CC(=O)N(C)C)CC2` | 27.93% |
| `COCCC(C)NC(=O)N1CCC(n2ccc(C(F)(F)F)n2)CC1` (stereo not drawn) | 16.61% |
| `CSCC(C)(O)CNS(=O)(=O)c1cccc(Cl)c1` (stereo not drawn) | 16.25% |
| `CCCS(=O)(=O)NC1CCc2c(ccc(=O)n2CC2CC2)C1` (stereo not drawn) | -7.482% |
| `Nc1cc(N2CCCC(Cc3ccc(F)cc3F)(C(=O)O)C2)ncn1` (stereo not drawn) | -0.9535% |
| `OC1(CNc2ccc(-c3nc(C4CC4)no3)cn2)CCCCC1` | -23.89% |
| `Cc1noc(C)c1CN(C)CC1CC(C2CCCCC2)=NO1` (stereo not drawn) | 25.48% |
| `CCN(CC)c1nc(O)cc(C(C)n2ncc3ccccc3c2=O)n1` (stereo not drawn) | 15.99% |
| `CO[C@@H]1CC[C@@H](NC(=O)c2ccc(OCCN3CCCC3)cc2)[C@H]1O` | 5.676% |
| `Cc1cc(C)c(OCC(=O)NS(=O)(=O)c2c(C)noc2C)c(C)c1` | 9.934% |
| `Cc1cccc(CN2C(=O)CCC23CCN(Cc2ccoc2)CC3)n1` | 5.282% |
| `Cl.c1cc(CNCc2ccnc(N3CCOCC3)c2)c2c(c1)OCO2` | -22.66% |
| `CN(CC(=O)N1CCOC(CCc2ccccc2)C1)Cc1ccccn1` (stereo not drawn) | -6.152% |
| `CCOCC1CN(c2ccc(C)nn2)Cc2nn(CC)cc21.O=C(O)C(F)(F)F.O=C(O)C(F)(F)F` (stereo not drawn) | -54.95% |
| `COCCn1c(=O)n(Cc2ccc(Cl)s2)c2cc(C(=O)O)ccc21` | 13.35% |
| `Oc1nc(N2CCOCC2)nc2c1CCN(Cc1ccccc1)CC2` | -57.66% |
| `CC(C)NC(=O)N1CCCC2(CCN(c3ccccc3)C2=O)C1` (stereo not drawn) | 20.91% |
| `CCC(C)C(=O)Nc1ccc2oc(=O)n(CCN(C)C)c2c1` (stereo not drawn) | -42.67% |
| `Cc1nc(C(=O)N2CCN(S(C)(=O)=O)CC2)c(-c2ccccc2)s1` | -5.867% |
| `O=C1CN(Cc2nnc(-c3ccc(Br)cc3)o2)CCN1` | -3.555% |
| `CC(=O)NC(C)C1=CCCN(Cc2ccc(C(=O)O)cc2)C1` (stereo not drawn) | 6.92% |
| `CN1CCCN(C(=O)c2nc3c(s2)CCCN3CC2CC2)CC1` | -10.15% |
| `CCc1nc2n(n1)CC(NCc1ncc(-c3ccccc3)o1)CC2` (stereo not drawn) | 13.51% |

Once more, the final 9:

{"compound": "COCCn1c(=O)n(Cc2ccc(Cl)s2)c2cc(C(=O)O)ccc21", "percent effect": 13.35}
{"compound": "Oc1nc(N2CCOCC2)nc2c1CCN(Cc1ccccc1)CC2", "percent effect": -57.66}
{"compound": "CC(C)NC(=O)N1CCCC2(CCN(c3ccccc3)C2=O)C1", "stereo": "stereo not drawn", "percent effect": 20.91}
{"compound": "CCC(C)C(=O)Nc1ccc2oc(=O)n(CCN(C)C)c2c1", "stereo": "stereo not drawn", "percent effect": -42.67}
{"compound": "Cc1nc(C(=O)N2CCN(S(C)(=O)=O)CC2)c(-c2ccccc2)s1", "percent effect": -5.867}
{"compound": "O=C1CN(Cc2nnc(-c3ccc(Br)cc3)o2)CCN1", "percent effect": -3.555}
{"compound": "CC(=O)NC(C)C1=CCCN(Cc2ccc(C(=O)O)cc2)C1", "stereo": "stereo not drawn", "percent effect": 6.92}
{"compound": "CN1CCCN(C(=O)c2nc3c(s2)CCCN3CC2CC2)CC1", "percent effect": -10.15}
{"compound": "CCc1nc2n(n1)CC(NCc1ncc(-c3ccccc3)o1)CC2", "stereo": "stereo not drawn", "percent effect": 13.51}